The supplement of paper PMC4604168 (melanoma cell lines)
This is one part of the list. Repeats are few or missing, and single values can be far off.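 The apoptosis fraction was the count of cleaved-PARP antibody-stained nuclei relative to all DNA-stained nuclei, imaged in 1,536-well plates. Screening doses were set so most cells survived, and baseline and induced cleaved-PARP levels vary greatly across cell lines.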

Assays:
Test in all cases: cleaved PARP positive nuclei fraction relative to DMSO control; melanoma cells; higher = more apoptosis
Conditions in all cases: library dose: low library concentration; 72 h
WM115 = test system: WM115
WM1716 = test system: WM1716
WM1745 = test system: WM1745
WM3526 = test system: WM3526
WM3619 = test system: WM3619
WM451Lu = test system: WM451Lu

Row | SMILES | cleaved PARP positive nuclei fraction (WM115) [%] | cleaved PARP positive nuclei fraction (WM1716) [%] | cleaved PARP positive nuclei fraction (WM1745) [%] | cleaved PARP positive nuclei fraction (WM3526) [%] | cleaved PARP positive nuclei fraction (WM3619) [%] | cleaved PARP positive nuclei fraction (WM451Lu) [%]
1 | NC(=O)c1ccc(N(C(N)=O)c2c(F)cccc2F)nc1-c1ccc(F)cc1F + Nc1ccn([C@@H]2O[C@H](CO)[C@@H](O)C2(F)F)c(=O)n1 [gemcitabine] (first compound 0.4 µM, partner dose 0.0004 µM) | 105 | 102 | 155 | 139 | 126 | 39.4
2 | CCN(CC)CCNC(=O)c1c(C)[nH]c(/C=C2\C(=O)Nc3ccc(F)cc32)c1C [sunitinib] + c1cc(-c2cnn3cc(-c4ccc(OCCN5CCCCC5)cc4)cnc23)ccn1 [Dorsomorphin] (first compound 0.4 µM, partner dose 0.4 µM) | 178 | 61.5 | 148 | 76.8 | 76.2 | 198
3 | CN(c1ncccc1CNc1nc(Nc2ccc3c(c2)CC(=O)N3)ncc1C(F)(F)F)S(C)(=O)=O + COc1ccc2c(c1)CCC1C2CCC2(C)C(NCCCCCCN3C(=O)C=CC3=O)CCC12 [U73122] (first compound 0.08 µM, partner dose 0.4 µM) | 95.6 | 32.8 | 130 | 155 | 86.2 | 231
4 | Cn1cnc2c(F)c(Nc3ccc(Br)cc3Cl)c(C(=O)NOCCO)cc21 [selumetinib] + C=CCNC1=C2C[C@@H](C)C[C@H](OC)[C@H](O)[C@@H](C)/C=C(\C)[C@H](OC(N)=O)[C@@H](OC)/C=C\C=C(/C)C(=O)NC(=CC1=O)C2=O [Tanespimycin] (first compound 0.015 µM, partner dose 0.002 µM) | 190 | 135 | 103 | 115 | 113 | 62.9
5 | CCCCCCCCc1ccc(CCC(N)(CO)CO)cc1 [fingolimod] + CC1(C)NC(=O)N(c2ccc([N+](=O)[O-])c(C(F)(F)F)c2)C1=O [nilutamide] (first compound 2 µM, partner dose 1 µM) | 106 | 138 | 120 | 64.5 | 109 | 83.9
6 | CCN(CC)CCNC(=O)c1c(C)[nH]c(/C=C2\C(=O)Nc3ccc(F)cc32)c1C [sunitinib] + C=CCNC1=C2C[C@@H](C)C[C@H](OC)[C@H](O)[C@@H](C)/C=C(\C)[C@H](OC(N)=O)[C@@H](OC)/C=C\C=C(/C)C(=O)NC(=CC1=O)C2=O [Tanespimycin] (first compound 0.4 µM, partner dose 0.002 µM) | 148 | 124 | 95.9 | 175 | 81.3 | 178
7 | Cn1cnc2c(F)c(Nc3ccc(Br)cc3Cl)c(C(=O)NOCCO)cc21 [selumetinib] + CCCCCCCCCCCC1=C(O)C(=O)C=C(O)C1=O [Embelin] (first compound 0.015 µM, partner dose 1.2 µM) | 69.1 | 193 | 113 | 95.8 | 131 | 69.9
8 | CN(c1ncccc1CNc1nc(Nc2ccc3c(c2)CC(=O)N3)ncc1C(F)(F)F)S(C)(=O)=O + Clc1ccc(Nc2nnc(Cc3ccncc3)c3ccccc23)cc1 [vatalanib] (first compound 0.08 µM, partner dose 2 µM) | 182 | 73.8 | 103 | 86.4 | 113 | 194
9 | CN(c1ncccc1CNc1nc(Nc2ccc3c(c2)CC(=O)N3)ncc1C(F)(F)F)S(C)(=O)=O + CN(NC(=O)CC(=O)NN(C)C(=S)c1ccccc1)C(=S)c1ccccc1 [STA4783] (first compound 0.08 µM, partner dose 0.006 µM) | 65.7 | 168 | 164 | 55.9 | 104 | 129
10 | Cn1sc(=O)n(Cc2ccccc2)c1=O + CCCCCCCCCCCC1=C(O)C(=O)C=C(O)C1=O [Embelin] (first compound 0.4 µM, partner dose 1.2 µM) | 39.7 | 67.1 | 219 | 67.2 | 95.3 | 93.5
11 | NC1(c2ccc(-c3nc4ccn5c(=O)[nH]nc5c4cc3-c3ccccc3)cc2)CCC1 + O=C(O)c1ccc(-c2c[nH]c3ncc(-c4ccccc4)cc23)cc1C1CCCC1 [GSK650394] (first compound 0.4 µM, partner dose 0.16 µM) | 92.8 | 113 | 99.1 | 80.5 | 91.7 | 220
12 | CCN(CC)CCNC(=O)c1c(C)[nH]c(/C=C2\C(=O)Nc3ccc(F)cc32)c1C [sunitinib] + COc1ccc2c(c1)CCC1C2CCC2(C)C(NCCCCCCN3C(=O)C=CC3=O)CCC12 [U73122] (first compound 0.4 µM, partner dose 0.4 µM) | 34 | 81.2 | 123 | 173 | 70.3 | 40.3
13 | NC(=O)c1ccc(N(C(N)=O)c2c(F)cccc2F)nc1-c1ccc(F)cc1F + C[C@@H](Oc1cc(-c2cnn(C3CCNCC3)c2)cnc1N)c1c(Cl)ccc(F)c1Cl [Crizotinib] (first compound 0.4 µM, partner dose 0.2 µM) | 49.5 | 32.7 | 87.9 | 46.2 | 97.7 | 89.7
14 | CN(c1ncccc1CNc1nc(Nc2ccc3c(c2)CC(=O)N3)ncc1C(F)(F)F)S(C)(=O)=O + Oc1cc(-c2nc(-c3ccccc3)[nH]c2-c2ccncc2)ccc1Cl [L779450] (first compound 0.08 µM, partner dose 0.2 µM) | 151 | 54.7 | 124 | 182 | 120 | 243
15 | CC(=O)O[C@@]12CO[C@@H]1C[C@H](O)[C@@]1(C)C(=O)[C@H](O)C3=C(C)[C@@H](OC(=O)[C@H](O)[C@@H](NC(=O)OC(C)(C)C)c4ccccc4)C[C@@](O)([C@@H](OC(=O)c4ccccc4)[C@H]21)C3(C)C [Docetaxel] + CCCCCCCCCCCC1=C(O)C(=O)C=C(O)C1=O [Embelin] (first compound 0.0001 µM, partner dose 1.2 µM) | 381 | 594 | 191 | 262 | 132 | 365
16 | Cn1cnc2c(F)c(Nc3ccc(Br)cc3Cl)c(C(=O)NOCCO)cc21 [selumetinib] + C[C@@H]1CCN(C(=O)CC#N)C[C@@H]1N(C)c1ncnc2[nH]ccc12 [CP690550] (first compound 0.015 µM, partner dose 1 µM) | 159 | 87.9 | 85 | 73.7 | 108 | 56
17 | CCCCCCCCc1ccc(CCC(N)(CO)CO)cc1 [fingolimod] + CC(C)C[C@H](NC(=O)[C@H](Cc1ccccc1)NC(=O)c1cnccn1)B(O)O [Bortezomib] (first compound 2 µM, partner dose 0.001 µM) | 165 | 117 | 137 | 129 | 351 | 86.2
18 | CC(=O)O[C@@]12CO[C@@H]1C[C@H](O)[C@@]1(C)C(=O)[C@H](O)C3=C(C)[C@@H](OC(=O)[C@H](O)[C@@H](NC(=O)OC(C)(C)C)c4ccccc4)C[C@@](O)([C@@H](OC(=O)c4ccccc4)[C@H]21)C3(C)C [Docetaxel] + NC1(c2ccc(-c3nc4ccn5c(=O)[nH]nc5c4cc3-c3ccccc3)cc2)CCC1 [MK2206] (first compound 0.0001 µM, partner dose 0.4 µM) | 555 | 99.9 | 176 | 218 | 153 | 141
19 | COc1ccc(C2=N[C@@H](c3ccc(Cl)cc3)[C@@H](c3ccc(Cl)cc3)N2C(=O)N2CCNC(=O)C2)c(OC(C)C)c1 [Nutlin-3] + Cn1cncc1[C@@](N)(c1ccc(Cl)cc1)c1ccc2c(c1)c(-c1cccc(Cl)c1)cc(=O)n2C [tipifarnib] (first compound 0.1 µM, partner dose 0.01 µM) | 288 | 67.7 | 92.2 | 125 | 81.8 | 71.6
20 | CN(c1ncccc1CNc1nc(Nc2ccc3c(c2)CC(=O)N3)ncc1C(F)(F)F)S(C)(=O)=O + O=S(=O)(c1ccccc1)N(CC(F)(F)F)c1ccc(C(O)(C(F)(F)F)C(F)(F)F)cc1 [T0901317] (first compound 0.08 µM, partner dose 1.4 µM) | 296 | 246 | 144 | 428 | 94.1 | 114
21 | Cn1cnc2c(F)c(Nc3ccc(Br)cc3Cl)c(C(=O)NOCCO)cc21 [selumetinib] + C=C(c1ccc(C(=O)O)cc1)c1cc2c(cc1C)C(C)(C)CCC2(C)C [Bexarotene] (first compound 0.015 µM, partner dose 2 µM) | 144 | 69.9 | 108 | 535 | 121 | 110
22 | NC1(c2ccc(-c3nc4ccn5c(=O)[nH]nc5c4cc3-c3ccccc3)cc2)CCC1 + Cc1nc(Nc2ncc(C(=O)Nc3c(C)cccc3Cl)s2)cc(N2CCN(CCO)CC2)n1 [dasatanib] (first compound 0.4 µM, partner dose 0.004 µM) | 644 | 106 | 142 | 119 | 95 | 64.9
23 | CCCCCCCCc1ccc(CCC(N)(CO)CO)cc1 [fingolimod] + COc1cc2c(Oc3ccc4[nH]c(C)cc4c3F)ncnc2cc1OCCCN1CCCC1 [cediranib] (first compound 2 µM, partner dose 0.4 µM) | 96.7 | 101 | 112 | 120 | 80.7 | 49.4
24 | NC(=O)c1ccc(N(C(N)=O)c2c(F)cccc2F)nc1-c1ccc(F)cc1F + CN(c1ncccc1CNc1nc(Nc2ccc3c(c2)CC(=O)N3)ncc1C(F)(F)F)S(C)(=O)=O [PF562271] (first compound 0.4 µM, partner dose 0.08 µM) | 193 | 112 | 110 | 94.7 | 101 | 207

Just cleaved PARP positive nuclei fraction (WM3526) [%], cleaved PARP positive nuclei fraction (WM3619) [%] and cleaved PARP positive nuclei fraction (WM451Lu) [%], for some of the entries so far:
Row,SMILES,cleaved PARP positive nuclei fraction (WM3526) [%],cleaved PARP positive nuclei fraction (WM3619) [%],cleaved PARP positive nuclei fraction (WM451Lu) [%]
11,"NC1(c2ccc(-c3nc4ccn5c(=O)[nH]nc5c4cc3-c3ccccc3)cc2)CCC1 + O=C(O)c1ccc(-c2c[nH]c3ncc(-c4ccccc4)cc23)cc1C1CCCC1 [GSK650394] (first compound 0.4 µM, partner dose 0.16 µM)",80.5,91.7,220
17,"CCCCCCCCc1ccc(CCC(N)(CO)CO)cc1 [fingolimod] + CC(C)C[C@H](NC(=O)[C@H](Cc1ccccc1)NC(=O)c1cnccn1)B(O)O [Bortezomib] (first compound 2 µM, partner dose 0.001 µM)",129,351,86.2
